# Test results from the supplement of paper PMC12819154, “High-throughput peptide-centric local stability assay extends protein–ligand identification to membrane proteins, tissues and bacteria” (Nature Structural & Molecular Biology, 2025).
# Amino acid sequences for entries named in this document (tags omitted). A change or cut given only in a name is not applied to a line headed by its entry.
# UniProt P31134: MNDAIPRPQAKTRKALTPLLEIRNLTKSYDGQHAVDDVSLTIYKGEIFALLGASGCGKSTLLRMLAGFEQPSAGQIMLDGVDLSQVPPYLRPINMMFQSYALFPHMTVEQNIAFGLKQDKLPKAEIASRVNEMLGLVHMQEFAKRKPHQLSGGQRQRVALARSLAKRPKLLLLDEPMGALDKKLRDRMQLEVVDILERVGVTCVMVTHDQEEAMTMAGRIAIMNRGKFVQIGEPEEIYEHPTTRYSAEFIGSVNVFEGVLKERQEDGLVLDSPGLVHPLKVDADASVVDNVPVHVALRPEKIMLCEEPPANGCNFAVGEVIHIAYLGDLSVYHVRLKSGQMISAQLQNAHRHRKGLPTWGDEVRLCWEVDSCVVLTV
# UniProt P37661: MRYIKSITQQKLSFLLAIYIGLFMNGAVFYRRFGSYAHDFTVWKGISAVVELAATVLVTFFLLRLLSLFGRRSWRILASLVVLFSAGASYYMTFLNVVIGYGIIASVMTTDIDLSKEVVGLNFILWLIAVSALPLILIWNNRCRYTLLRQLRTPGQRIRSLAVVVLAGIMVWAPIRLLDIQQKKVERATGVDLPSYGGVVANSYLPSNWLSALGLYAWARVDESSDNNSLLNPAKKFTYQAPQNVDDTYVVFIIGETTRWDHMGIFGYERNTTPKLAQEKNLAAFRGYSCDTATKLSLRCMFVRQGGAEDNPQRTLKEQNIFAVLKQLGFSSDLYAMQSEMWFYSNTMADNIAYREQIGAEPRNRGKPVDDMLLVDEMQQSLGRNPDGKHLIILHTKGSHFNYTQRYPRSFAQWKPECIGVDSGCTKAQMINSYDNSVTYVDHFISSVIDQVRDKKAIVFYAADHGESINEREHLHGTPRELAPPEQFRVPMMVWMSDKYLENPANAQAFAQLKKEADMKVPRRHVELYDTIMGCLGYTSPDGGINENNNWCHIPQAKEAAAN
# UniProt P38392: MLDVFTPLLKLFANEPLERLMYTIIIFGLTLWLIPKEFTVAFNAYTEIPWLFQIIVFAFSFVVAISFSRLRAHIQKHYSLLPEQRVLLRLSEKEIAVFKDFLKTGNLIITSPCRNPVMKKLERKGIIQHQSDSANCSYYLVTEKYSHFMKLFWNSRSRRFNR
# UniProt P37757: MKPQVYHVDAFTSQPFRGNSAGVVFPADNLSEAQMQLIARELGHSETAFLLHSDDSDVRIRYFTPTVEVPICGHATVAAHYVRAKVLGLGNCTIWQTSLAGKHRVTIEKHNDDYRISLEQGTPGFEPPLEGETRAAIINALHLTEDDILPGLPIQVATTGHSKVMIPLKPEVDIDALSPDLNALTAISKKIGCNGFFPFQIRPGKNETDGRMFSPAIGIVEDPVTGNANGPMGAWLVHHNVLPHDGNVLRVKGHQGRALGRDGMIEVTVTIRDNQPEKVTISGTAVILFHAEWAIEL
# UniProt P31600: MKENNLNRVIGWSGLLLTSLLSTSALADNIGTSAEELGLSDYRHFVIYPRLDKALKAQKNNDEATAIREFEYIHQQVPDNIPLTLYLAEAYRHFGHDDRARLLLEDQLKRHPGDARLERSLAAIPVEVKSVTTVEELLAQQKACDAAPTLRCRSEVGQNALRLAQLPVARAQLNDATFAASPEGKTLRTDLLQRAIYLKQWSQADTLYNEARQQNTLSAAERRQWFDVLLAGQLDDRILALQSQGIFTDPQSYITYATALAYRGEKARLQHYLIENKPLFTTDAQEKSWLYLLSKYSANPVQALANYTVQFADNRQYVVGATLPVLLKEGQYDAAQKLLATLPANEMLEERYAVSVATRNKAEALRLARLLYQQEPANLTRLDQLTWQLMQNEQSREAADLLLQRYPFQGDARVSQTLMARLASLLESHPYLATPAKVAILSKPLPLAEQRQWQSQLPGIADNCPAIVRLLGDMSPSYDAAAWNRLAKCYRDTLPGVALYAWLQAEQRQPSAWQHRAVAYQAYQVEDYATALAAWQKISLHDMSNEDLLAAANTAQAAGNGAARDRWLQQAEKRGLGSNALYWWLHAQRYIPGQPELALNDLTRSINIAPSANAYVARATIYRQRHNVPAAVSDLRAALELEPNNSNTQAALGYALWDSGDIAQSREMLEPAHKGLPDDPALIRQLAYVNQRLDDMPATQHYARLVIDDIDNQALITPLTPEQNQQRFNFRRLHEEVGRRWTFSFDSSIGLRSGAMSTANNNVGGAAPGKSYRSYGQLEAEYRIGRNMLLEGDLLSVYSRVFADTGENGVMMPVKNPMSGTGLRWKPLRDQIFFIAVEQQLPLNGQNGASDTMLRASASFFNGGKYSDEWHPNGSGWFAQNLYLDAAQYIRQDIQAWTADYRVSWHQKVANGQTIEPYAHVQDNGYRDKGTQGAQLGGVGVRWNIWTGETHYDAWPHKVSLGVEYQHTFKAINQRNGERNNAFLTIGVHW
# UniProt P33354: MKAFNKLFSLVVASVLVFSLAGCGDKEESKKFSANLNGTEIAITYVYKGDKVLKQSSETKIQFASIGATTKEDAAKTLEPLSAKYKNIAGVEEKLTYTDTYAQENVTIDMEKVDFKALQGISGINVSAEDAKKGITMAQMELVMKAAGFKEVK
# UniProt P33228: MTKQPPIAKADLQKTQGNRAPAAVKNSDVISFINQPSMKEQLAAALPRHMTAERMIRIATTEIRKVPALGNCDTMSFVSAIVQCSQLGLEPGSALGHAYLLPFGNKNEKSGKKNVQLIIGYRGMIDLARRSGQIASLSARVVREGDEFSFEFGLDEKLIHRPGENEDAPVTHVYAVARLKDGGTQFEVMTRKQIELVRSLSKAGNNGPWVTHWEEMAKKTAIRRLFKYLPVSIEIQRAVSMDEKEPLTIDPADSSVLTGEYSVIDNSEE
# UniProt P31459: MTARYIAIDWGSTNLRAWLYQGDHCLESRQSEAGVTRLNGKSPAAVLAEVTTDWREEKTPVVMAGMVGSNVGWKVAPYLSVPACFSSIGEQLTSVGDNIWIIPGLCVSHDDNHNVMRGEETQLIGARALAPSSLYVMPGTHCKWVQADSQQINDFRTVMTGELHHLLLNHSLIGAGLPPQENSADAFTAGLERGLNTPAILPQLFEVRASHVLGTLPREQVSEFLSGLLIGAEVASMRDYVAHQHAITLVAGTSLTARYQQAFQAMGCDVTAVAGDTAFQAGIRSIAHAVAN
# UniProt P37645: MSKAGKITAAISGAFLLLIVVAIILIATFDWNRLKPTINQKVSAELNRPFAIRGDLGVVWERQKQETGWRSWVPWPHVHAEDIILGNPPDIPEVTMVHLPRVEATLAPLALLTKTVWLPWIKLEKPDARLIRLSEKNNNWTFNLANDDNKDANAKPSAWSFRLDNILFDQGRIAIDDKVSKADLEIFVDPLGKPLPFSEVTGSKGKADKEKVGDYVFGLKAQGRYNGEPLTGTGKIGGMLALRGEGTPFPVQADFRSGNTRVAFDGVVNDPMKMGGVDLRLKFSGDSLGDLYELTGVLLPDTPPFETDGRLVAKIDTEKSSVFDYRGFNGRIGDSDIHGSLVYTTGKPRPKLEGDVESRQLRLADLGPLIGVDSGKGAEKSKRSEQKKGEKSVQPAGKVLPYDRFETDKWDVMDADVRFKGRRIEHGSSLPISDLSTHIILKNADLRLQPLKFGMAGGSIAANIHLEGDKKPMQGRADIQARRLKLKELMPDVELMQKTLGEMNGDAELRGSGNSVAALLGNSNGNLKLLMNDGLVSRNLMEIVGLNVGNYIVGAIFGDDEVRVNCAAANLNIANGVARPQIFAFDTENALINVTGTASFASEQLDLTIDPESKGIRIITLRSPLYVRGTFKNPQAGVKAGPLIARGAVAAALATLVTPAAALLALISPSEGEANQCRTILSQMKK
# UniProt P39297: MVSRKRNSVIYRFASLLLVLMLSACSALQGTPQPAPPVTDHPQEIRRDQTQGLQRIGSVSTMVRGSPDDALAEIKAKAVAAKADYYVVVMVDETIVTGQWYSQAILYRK
# UniProt P32176, whole entry: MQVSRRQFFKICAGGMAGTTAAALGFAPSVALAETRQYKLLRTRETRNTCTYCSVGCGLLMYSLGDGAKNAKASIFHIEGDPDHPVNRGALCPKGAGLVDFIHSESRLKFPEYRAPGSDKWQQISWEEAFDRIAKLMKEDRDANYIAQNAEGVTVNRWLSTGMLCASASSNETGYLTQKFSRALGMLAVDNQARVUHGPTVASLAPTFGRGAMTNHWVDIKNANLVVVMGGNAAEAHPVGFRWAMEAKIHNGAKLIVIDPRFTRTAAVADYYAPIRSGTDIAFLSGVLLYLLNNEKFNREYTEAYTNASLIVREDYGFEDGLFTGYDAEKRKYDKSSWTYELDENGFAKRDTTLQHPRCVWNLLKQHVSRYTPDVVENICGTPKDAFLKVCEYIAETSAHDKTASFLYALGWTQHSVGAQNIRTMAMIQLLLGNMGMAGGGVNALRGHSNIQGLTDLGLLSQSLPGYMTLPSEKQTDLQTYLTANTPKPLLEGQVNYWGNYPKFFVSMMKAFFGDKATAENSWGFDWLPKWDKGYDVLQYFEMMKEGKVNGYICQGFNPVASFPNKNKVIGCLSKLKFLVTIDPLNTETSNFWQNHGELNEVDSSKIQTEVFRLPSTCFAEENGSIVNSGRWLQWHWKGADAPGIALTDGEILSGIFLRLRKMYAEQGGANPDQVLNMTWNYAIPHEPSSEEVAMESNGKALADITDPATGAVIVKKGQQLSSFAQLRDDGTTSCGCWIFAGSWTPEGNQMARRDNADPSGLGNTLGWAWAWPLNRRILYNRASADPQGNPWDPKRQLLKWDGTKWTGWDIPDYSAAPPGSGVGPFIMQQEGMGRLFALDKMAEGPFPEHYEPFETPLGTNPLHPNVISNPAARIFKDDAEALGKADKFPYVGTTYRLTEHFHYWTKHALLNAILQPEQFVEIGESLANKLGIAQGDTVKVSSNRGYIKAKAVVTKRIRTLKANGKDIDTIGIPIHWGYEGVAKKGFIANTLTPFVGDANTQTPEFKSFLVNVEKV
# UniProt P37047: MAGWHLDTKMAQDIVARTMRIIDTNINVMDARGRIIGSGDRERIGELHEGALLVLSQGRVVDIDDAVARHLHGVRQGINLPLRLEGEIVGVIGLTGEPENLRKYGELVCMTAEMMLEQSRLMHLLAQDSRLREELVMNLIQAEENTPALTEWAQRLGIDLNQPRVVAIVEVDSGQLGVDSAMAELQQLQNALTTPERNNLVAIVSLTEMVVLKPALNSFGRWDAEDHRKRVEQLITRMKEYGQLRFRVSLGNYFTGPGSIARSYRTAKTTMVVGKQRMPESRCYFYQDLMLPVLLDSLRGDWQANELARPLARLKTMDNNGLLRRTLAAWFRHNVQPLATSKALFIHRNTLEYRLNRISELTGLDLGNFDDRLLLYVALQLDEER
# UniProt P39333: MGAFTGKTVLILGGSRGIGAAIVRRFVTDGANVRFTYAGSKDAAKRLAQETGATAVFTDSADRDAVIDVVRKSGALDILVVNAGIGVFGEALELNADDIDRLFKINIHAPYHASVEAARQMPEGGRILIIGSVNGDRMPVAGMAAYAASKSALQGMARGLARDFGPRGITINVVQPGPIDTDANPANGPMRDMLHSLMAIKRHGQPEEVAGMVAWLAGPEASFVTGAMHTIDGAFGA
# UniProt P32677: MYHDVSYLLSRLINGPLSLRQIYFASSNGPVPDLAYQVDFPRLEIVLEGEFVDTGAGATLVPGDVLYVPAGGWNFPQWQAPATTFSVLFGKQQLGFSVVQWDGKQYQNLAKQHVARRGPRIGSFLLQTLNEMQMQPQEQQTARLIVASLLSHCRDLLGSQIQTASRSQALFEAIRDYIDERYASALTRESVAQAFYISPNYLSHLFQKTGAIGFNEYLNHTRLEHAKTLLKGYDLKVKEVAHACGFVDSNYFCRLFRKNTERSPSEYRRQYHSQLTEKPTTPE
# UniProt P39212: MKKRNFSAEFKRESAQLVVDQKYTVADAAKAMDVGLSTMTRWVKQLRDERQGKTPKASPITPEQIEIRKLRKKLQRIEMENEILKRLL
# UniProt P39165: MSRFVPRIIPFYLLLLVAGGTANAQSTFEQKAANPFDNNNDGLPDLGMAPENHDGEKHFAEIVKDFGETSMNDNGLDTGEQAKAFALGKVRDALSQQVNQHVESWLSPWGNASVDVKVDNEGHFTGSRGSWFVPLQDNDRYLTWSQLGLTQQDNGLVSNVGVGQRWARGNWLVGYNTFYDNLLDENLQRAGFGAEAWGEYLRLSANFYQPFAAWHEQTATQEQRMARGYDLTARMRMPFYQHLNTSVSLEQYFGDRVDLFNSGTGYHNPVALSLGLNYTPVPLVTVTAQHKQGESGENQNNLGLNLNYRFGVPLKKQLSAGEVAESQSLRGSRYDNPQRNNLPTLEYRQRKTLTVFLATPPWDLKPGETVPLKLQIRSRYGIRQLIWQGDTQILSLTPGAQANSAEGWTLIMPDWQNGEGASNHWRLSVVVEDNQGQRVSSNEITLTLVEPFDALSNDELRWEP
# The entries are a selection whose mix differs from that of the whole data set. Small differences around the control level are noise.
# Compound: Nc1ncnc2c1ncn2[C@@H]1O[C@H](COP(=O)(O)OP(=O)(O)OP(=O)(O)O)[C@@H](O)[C@H]1O [adenosine 5'-triphosphate]
# Assay: log2 fold change of tryptic peptide abundance, ligand vs vehicle (limited proteolysis) (log2 ratio); higher = more trypsin-susceptible (destabilized)
# Conditions: ligand concentration: 5 mM; sample: E. coli desalted lysate; replicate design: treated before aliquoting
# Method: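 HT-PELSA: desalted E. coli K-12 BW25113 lysate (with 12 mM MgCl2) incubated with 5 mM ATP (pH 7) or water for 30 min at 25 C, then a 4 min trypsin pulse at 22 C. Peptides were quantified by DIA-MS (4 replicates). Value is the peptide log2 fold change (treated/control); negative = stabilized. Scale: negative = ligand-stabilized region.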
# 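Further: lysate desalted by size exclusion to strip endogenous ATP, peptide intensities built from DIA-NN precursor signals, and peptides missing any value discarded before comparison.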
row,Target,log2 fold change
1,"UniProt P31134 (peptide sequence: LLLLDEPMGALDKK, peptide start residue: 170)",-0.66
2,"UniProt P37661 (peptide sequence: EHLHGTPR, peptide start residue: 473)",-0.526
3,"UniProt P38392 (peptide sequence: TGNLIITSPCR, peptide start residue: 104)",-0.384
4,"UniProt P39315 (peptide sequence: AQALAAQGITVR, peptide start residue: 38)",0.389
5,"UniProt P37757 (peptide sequence: ELGHSETAFLLHSDDSDVR, peptide start residue: 41)",0.748
6,"UniProt P31600 (peptide sequence: ACDAAPTLR, peptide start residue: 143)",0.388
7,"UniProt P33354 (peptide sequence: IQFASIGATTKEDAAK, peptide start residue: 61)",-0.00177
8,"UniProt P33228 (peptide sequence: EQLAAALPR, peptide start residue: 40)",0.25
9,"UniProt P31459 (peptide sequence: AWLYQGDHCLESR, peptide start residue: 17)",-0.364
10,"UniProt P37645 (peptide sequence: LEGDVESR, peptide start residue: 352)",-0.232
11,"UniProt P39297 (peptide sequence: IGSVSTMVR, peptide start residue: 56)",-0.652
12,"UniProt P32176 (peptide sequence: ASIFHIEGDPDHPVNR, peptide start residue: 73)",0.249
13,"UniProt P37047 (peptide sequence: MKEYGQLR, peptide start residue: 238)",-0.418
14,"UniProt P39333 (peptide sequence: ILIIGSVNGDR, peptide start residue: 127)",0.414
15,"UniProt P32677 (peptide sequence: VKEVAHACGFVDSNYFCR, peptide start residue: 237)",0.766
16,"UniProt P39212 (peptide sequence: ESAQLVVDQK, peptide start residue: 13)",-0.26
17,"UniProt P39165 (peptide sequence: NNLPTLEYR, peptide start residue: 340)",0.0229

# Individual results from the entries so far.
# UniProt P37047 (peptide sequence: MKEYGQLR, peptide start residue: 238) | log2 fold change: -0.418
# UniProt P39297 (peptide sequence: IGSVSTMVR, peptide start residue: 56) | log2 fold change: -0.652
